Reference: PubChem BioAssay AID1224827 (NIAID, 2016)

Aim: 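Retest primary hits on a TNF reporter with six siRNAs per gene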 (follow-up of hits)
Cells: RAW264.7 G9 mouse macrophage reporter clone
Knock-down reagent: single siRNA against mouse genes, 100 nM siRNA
Timing: siRNA for 2 days, then LPS about 16 h
Challenge: bacterial lipopolysaccharide (LPS), 10 ng/ml, cells fixed after overnight (about 16 h) stimulation
Read-out: 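Imaged nuclear TNF reporter intensity, background removed, scaled per plate and to non-targeting control wells, as z-scores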
Reading the numbers: TNF reporter z-score, mean: higher = stronger Tnf promoter reporter signal; gene median z, three same-vendor siRNAs: higher = stronger Tnf reporter signal for the gene
Call rule: 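Active siRNA: replicate-mean z-score of 2 or more, or -2 or less; no calls for control wells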
In all, the deposit lists about 3,800 reagents; below is a part drawn at random. About 2,200 of all reagents (57%) count as active. 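Active means a strong reporter change in either direction; calls are per siRNA, not per gene; qiagen siRNAs gave weaker effects.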 Reagents against one gene are numbered here. Not all columns of the deposit are shown.

target | reagent no. | TNF reporter z-score, mean | gene median z, three same-vendor siRNAs | Outcome
Fas | 1 | -1.17 | -2.26 | inactive
Fas | 2 | -1.61 | -2.26 | inactive
Fas | 3 | -3.05 | -2.26 | active
Fas | 4 | -1.46 | -1.93 | inactive
Fas | 5 | -1.67 | -1.93 | inactive
Fas | 6 | -2.89 | -1.93 | active
Tnfsf14 | 1 | 1.4 | 0.27 | inactive
Tnfsf14 | 2 | 0.948 | 0.27 | inactive
Tnfsf14 | 3 | -3.86 | 0.27 | active
Tnfsf14 | 4 | -1.55 | -2.46 | inactive
Tnfsf14 | 5 | -2.31 | -2.46 | active
Tnfsf14 | 6 | -2.86 | -2.46 | active
Alpl | 1 | 0.751 | -0.488 | inactive
Alpl | 2 | -0.488 | -0.488 | inactive
Alpl | 3 | -3.3 | -0.488 | active
Alpl | 4 | 2.93 | 1.7 | active
Alpl | 5 | 1.21 | 1.7 | inactive
Alpl | 6 | 1.8 | 1.7 | inactive
Zfp825 | 1 | 1.33 | -3.72 | inactive
Zfp825 | 2 | -4.03 | -3.72 | active
Zfp825 | 3 | -4.57 | -3.72 | active
Zfp825 | 4 | 3.36 | 0.65 | active
Zfp825 | 5 | 1.86 | 0.65 | inactive
Zfp825 | 6 | -2.55 | 0.65 | active
Zkscan14 | 1 | -1.34 | -2.37 | inactive
Zkscan14 | 2 | -2.41 | -2.37 | active
Zkscan14 | 3 | -4.17 | -2.37 | active
Zkscan14 | 4 | 6.98 | 3.03 | active
Zkscan14 | 5 | 2.25 | 3.03 | active
Zkscan14 | 6 | 0.602 | 3.03 | inactive

The list goes on (3 carried over from the part before).
target | reagent no. | TNF reporter z-score, mean | gene median z, three same-vendor siRNAs | Outcome
Zkscan14 | 4 | 6.98 | 3.03 | active
Zkscan14 | 5 | 2.25 | 3.03 | active
Zkscan14 | 6 | 0.602 | 3.03 | inactive
Poglut3 | 1 | -1.73 | -2.61 | inactive
Poglut3 | 2 | -2.07 | -2.61 | active
Poglut3 | 3 | -4.54 | -2.61 | active
Poglut3 | 4 | 1.85 | 0.902 | inactive
Poglut3 | 5 | 1.49 | 0.902 | inactive
Poglut3 | 6 | 0.891 | 0.902 | inactive
A430093F15Rik | 1 | 1.11 | -0.248 | inactive
A430093F15Rik | 2 | -0.248 | -0.248 | inactive
A430093F15Rik | 3 | -4.82 | -0.248 | active
A430093F15Rik | 4 | 1.38 | 0.582 | inactive
A430093F15Rik | 5 | 0.657 | 0.582 | inactive
A430093F15Rik | 6 | 0.439 | 0.582 | inactive
Sqor | 1 | -3.19 | -3.85 | active
Sqor | 2 | -3.85 | -3.85 | active
Sqor | 3 | -5.82 | -3.85 | active
Sqor | 4 | 1.45 | -0.0348 | inactive
Sqor | 5 | 0.954 | -0.0348 | inactive
Sqor | 6 | -2.22 | -0.0348 | active
Gab1 | 1 | 8.59 | -4.46 | active
Gab1 | 2 | -4.65 | -4.46 | active
Gab1 | 3 | -5 | -4.46 | active
Gab1 | 4 | 2.79 | -0.00538 | active
Gab1 | 5 | 2.09 | -0.00538 | active
Gab1 | 6 | -2.48 | -0.00538 | active
Scamp5 | 1 | 0.438 | -1.14 | inactive
Scamp5 | 2 | -0.654 | -1.14 | inactive
Scamp5 | 3 | -5.09 | -1.14 | active
Scamp5 | 4 | 0.709 | -0.36 | inactive
Scamp5 | 5 | -0.171 | -0.36 | inactive
Scamp5 | 6 | -0.708 | -0.36 | inactive
